Reference: PMC6209375
Results are given in words; binding and its absence hold for the method and conditions named. In cells and extracts the contact can be indirect. For some of these results: A result given as binding can be weak or reduced; the word gives no strength. Sequences can lack the tags named with a protein.

How the values were obtained:
Assay in all cases: pull-down; GST fusions of NCL and its fragments on glutathione-sepharose beads (25 uM GST fusion protein, three-fold molar excess of prey) incubated in lysates of RK-13 cells transfected with the myc-VP60 plasmid for 48 h; blot with anti-VP60 mAb; only the target purified
GST-NTD-C2 (rabbit) = target: T1, GST-NTD-C2 (rabbit) (UniProt G1TVT0)
T1 sequence: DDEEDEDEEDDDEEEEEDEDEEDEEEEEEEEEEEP

GST-NTD-C (rabbit) = target: T2, GST-NTD-C (rabbit) (UniProt G1TVT0)
T2 sequence: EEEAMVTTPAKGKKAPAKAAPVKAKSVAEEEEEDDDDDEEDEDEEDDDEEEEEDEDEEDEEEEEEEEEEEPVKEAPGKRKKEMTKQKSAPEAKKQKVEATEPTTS

GST-NTD-C1 (rabbit) = target: T3, GST-NTD-C1 (rabbit) (UniProt G1TVT0)
T3 sequence: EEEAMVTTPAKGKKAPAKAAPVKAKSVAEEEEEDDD

GST-NTD-C3 (rabbit) = target: T4, GST-NTD-C3 (rabbit) (UniProt G1TVT0)
T4 sequence: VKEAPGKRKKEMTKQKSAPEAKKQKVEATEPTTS

Q: Which results are given for “myc-VP60 (myc-tagged RHDV capsid protein VP60)”?
A: binding (GST-NTD-C2 (rabbit)): no binding; binding (GST-NTD-C (rabbit)): binds; binding (GST-NTD-C1 (rabbit)): no binding; binding (GST-NTD-C3 (rabbit)): binds
